# Results: publication PMC6412121
# Protein sequences, listed by entry. Tags and fused reporters are not part of them.
# UniProt Q13148, whole entry: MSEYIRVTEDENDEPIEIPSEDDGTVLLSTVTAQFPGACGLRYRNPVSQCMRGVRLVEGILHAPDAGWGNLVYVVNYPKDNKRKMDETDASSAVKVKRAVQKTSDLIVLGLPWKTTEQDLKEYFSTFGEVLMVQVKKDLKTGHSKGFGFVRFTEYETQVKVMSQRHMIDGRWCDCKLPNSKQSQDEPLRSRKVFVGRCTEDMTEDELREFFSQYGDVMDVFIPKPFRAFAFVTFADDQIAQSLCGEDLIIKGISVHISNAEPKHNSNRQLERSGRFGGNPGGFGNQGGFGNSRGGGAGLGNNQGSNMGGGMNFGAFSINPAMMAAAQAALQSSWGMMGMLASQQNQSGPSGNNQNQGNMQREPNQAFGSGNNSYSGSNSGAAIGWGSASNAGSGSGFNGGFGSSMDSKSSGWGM
# For some of these results: Construct, isoform or probe ends are uncertain for at least one entry. For some of these results: At least one verdict rests on a figure or table, not on a statement of the authors.
# Assays:
# [1] = biological target: TF-TDP-43-FL (UniProt Q13148); experiment: EMSA; settings: biotin-UTP incorporated in transcription; EMSA: 40 mM Tris-HCl pH 7.4, 30 mM KCl, 1 mM MgCl2, 0.01% IGEPAL CA-630, 1 mM DTT, 10 ug yeast tRNA, 10 ug BSA, 10 ng RNA, 200 ng protein in 10 ul, 25 C, 20 min; recombinant protein; residues 1-414; protein details: TF; label: biotin; probe letters rebuilt from the primers and the genome
# [2] = biological target: TF-TDP-43-FL (UniProt Q13148); experiment: competition with a labelled probe; settings: unlabeled competitor in EMSA, interrupts binding of scaRNA2, 7, 9 and 28; EMSA: 40 mM Tris-HCl pH 7.4, 30 mM KCl, 1 mM MgCl2, 0.01% IGEPAL CA-630, 1 mM DTT, 10 ug yeast tRNA, 10 ug BSA, 10 ng RNA, 200 ng protein in 10 ul, 25 C, 20 min; recombinant protein; residues 1-414; protein details: TF
Sequence,binding result [1],binding result [2]
GGGAGAGUUUUAGGGAGGGAGAGCGGCCUGGGUCCUGGGUGUUGUGUGCGGAGCUGUGGCGUCGCGUGUGAGGCGCGUGCAGGGUGAGUGUGAGUGGACGCGUGAGUGUGUGAGUGUGCGCGCUUGGAGCGUGUUAGGCGAGUGCGUGCGCCCACCCCUGCGCCCCUCCUCCCGCUUACACUUUGAUCUUAUUUGAUCGGAUCGUGACCCCAGCCCCGCCGGGCCGACCCGAAAUGAAAAGCUCUCCUCCUGCGAAGCCCCCUCGGGGCGCUGUGCAGCGAGGCCCCUUAGGCGGCGGCCACGCUGUGGUCCCCGAGGUCCCGGAGCUGGCCCUGCGGGGCCCGGCGCUCAGAAGUGAUGAAUUGAUCAGAUAGACGAGGCCGGGCUUGUCCCCGGCCACUGAUUAUCGAGGCGAUUCUGAUCUGG [scaRNA2],binds,–
GGGAGAUGGAAAUGAUGAAAUAGAGAUAAUUGGGUGUUGAAUGUUGUAUGACUGGAAAUUUUUAAUAUGUAUAUUAUGUAAUUCUUAUAAGUUUAGUGUUUUAUAGGUACUUAAUAGAGAGUGUGUAUGCAUGUGUGUGUGCUUGUGGUGGCUAUGGAAAGGGGGCACUGACUGGUGAUGCUGAUAUUGGAGUGCAUCUGAGGCUGUUGUAGAAAUAACAUGGGUUGUUGAUUACAACAUUGCCAAUGAUUAUAACCCAAGAACAGCUCACCUAACUAGCCUGGCACCCUAAAAUCUCUAACAGGUUCAUUAAAAUGGUCCUGUGAUCUGAUCCAA [scaRNA7 (U90)],binds,–
UGUGUGUGUGUG [(UG)6],–,binds
GGGAGACUUUCUGAGAUCUGCUUUUAGUGAAGUGGAUCAAUGAUGAAACUAGCCAAAUCUGAGCAUCAGAAGUCUUUCCAGUCUACCUGAUGCAUGAUCUCUACAGUUCUGAGAAGCAAAACUAUAAAACAAUGUAAAACAAUAAGGGCAUAUGUCUGGUGUGUGUGUGUGUGUGUGUGUGUGUGUGUGUGUGUACGCACAUGUGUUUAUAAAGAUAACAGCUGUAGGAAUGAAUGAGAUUGAGGGUGGGGGGGUGCGUAUGUAUGUCUAUGAAAGCCUAAUCAUUUCUGGGCAAUGAUGAAAAGGUUUUACUACUGAUCUUUGUAACUAUGAUGGUUUCUACACUUGACCUGAGCUCA [scaRNA9],binds,–
